Data published in PMC7039678.
Substitutions are numbered along the chain they refer to. In names and notes the source's numbering stands. These are yes or no findings as the source states them, for the method shown. For some of these results: Binding seen in cells or lysates may run through a third protein. Some binding calls cover weakened binding; strength is not graded here. For some of these results: Tags and fused reporters may be left off the sequences shown.

B1: endogenous TXNDC11 (protein, UniProt Q6PKC3-2 1-958)
chain: MSECGGRGGGSSSSEDAEDEGGGGGGPAGSDCLSSSPTLATASSAGRLRRGLRGAFLMARQRPELLCGAVALGCALLLALKFTCSRAKDVIIPAKPPVSFFSLRSPVLDLFQGQLDYAEYVRRDSEVVLLFFYAPWCGQSIAARAEIEQAASRLSDQVLFVAINCWWNQGKCRKQKHFFYFPVIYLYHRSFGPIEYKGPMSAVYIEKFVRRVMKPLLYIPSQSELLDFLSNYEPGVLGYFEFSGSPQPPGYLTFFTSALHSLKKDYLGTVRFGVITNKHLAKLVSLVHSGSVYLHRHFNTSLVFPREVLNYTAENICKWALENQETLFRWLRPHGGKSLLLNNELKKGPALFLFIPFNPLAESHPLIDEITEVALEYNNCHGDQVVERLLQHLRRVDAPVLESLALEVPAQLPDPPTITASPCCNTVVLPQWHSFSRTHNVCELCVNQTSGGMKPSSVSVPQCSFFEMAAALDSFYLKEQTFYHVASDSIECSNFLTSYSPFSYYTACCRTISRGVSGFIDSEQGVFEAPTVAFSSLEKKCEVDAPSSVPHIEENRYLFPEVDMTSTNFTGLSCRTNKTLNIYLLDSNLFWLYAERLGAPSSTQVKEFAAIVDVKEESHYILDPKQALMKLTLESFIQNFSVLYSPLKRHLIGSGSAQFPSQHLITEVTTDTFWEVVLQKQDVLLLYYAPWCGFCPSLNHIFIQLARNLPMDTFTVARIDVSQNDLPWEFMVDRLPTVLFFPCNRKDLSVKYPEDVPITLPNLLRFILHHSDPASSPQNVANSPTKECLQSEAVLQRGHISHLEREIQKLRAEISSLQRAQVQVESQLSSARRDEHRLRQQQRALEEQHSLLHAHSEQLQALYEQKTRELQELARKLQELADASENLLTENTWLKILVATMERKLEGRDGAESLAAQREVHPKQPEPSATPQLPGSSPPPANVSATLVSERNKENRTD
modifications: N-glycosylated
B2: TXNDC11(M1A)-3xFlag (protein, UniProt Q6PKC3-2 58-958)
chain: MARQRPELLCGAVALGCALLLALKFTCSRAKDVIIPAKPPVSFFSLRSPVLDLFQGQLDYAEYVRRDSEVVLLFFYAPWCGQSIAARAEIEQAASRLSDQVLFVAINCWWNQGKCRKQKHFFYFPVIYLYHRSFGPIEYKGPMSAVYIEKFVRRVMKPLLYIPSQSELLDFLSNYEPGVLGYFEFSGSPQPPGYLTFFTSALHSLKKDYLGTVRFGVITNKHLAKLVSLVHSGSVYLHRHFNTSLVFPREVLNYTAENICKWALENQETLFRWLRPHGGKSLLLNNELKKGPALFLFIPFNPLAESHPLIDEITEVALEYNNCHGDQVVERLLQHLRRVDAPVLESLALEVPAQLPDPPTITASPCCNTVVLPQWHSFSRTHNVCELCVNQTSGGMKPSSVSVPQCSFFEMAAALDSFYLKEQTFYHVASDSIECSNFLTSYSPFSYYTACCRTISRGVSGFIDSEQGVFEAPTVAFSSLEKKCEVDAPSSVPHIEENRYLFPEVDMTSTNFTGLSCRTNKTLNIYLLDSNLFWLYAERLGAPSSTQVKEFAAIVDVKEESHYILDPKQALMKLTLESFIQNFSVLYSPLKRHLIGSGSAQFPSQHLITEVTTDTFWEVVLQKQDVLLLYYAPWCGFCPSLNHIFIQLARNLPMDTFTVARIDVSQNDLPWEFMVDRLPTVLFFPCNRKDLSVKYPEDVPITLPNLLRFILHHSDPASSPQNVANSPTKECLQSEAVLQRGHISHLEREIQKLRAEISSLQRAQVQVESQLSSARRDEHRLRQQQRALEEQHSLLHAHSEQLQALYEQKTRELQELARKLQELADASENLLTENTWLKILVATMERKLEGRDGAESLAAQREVHPKQPEPSATPQLPGSSPPPANVSATLVSERNKENRTD
modifications: N-glycosylated
B3: endogenous ERp72 (enzyme, UniProt P13667 21-645)
chain: VAGAEGPDEDSSNRENAIEDEEEEEEEDDDEEEDDLEVKEENGVLVLNDANFDNFVADKDTVLLEFYAPWCGHCKQFAPEYEKIANILKDKDPPIPVAKIDATSASVLASRFDVSGYPTIKILKKGQAVDYEGSRTQEEIVAKVREVSQPDWTPPPEVTLVLTKENFDEVVNDADIILVEFYAPWCGHCKKLAPEYEKAAKELSKRSPPIPLAKVDATAETDLAKRFDVSGYPTLKIFRKGRPYDYNGPREKYGIVDYMIEQSGPPSKEILTLKQVQEFLKDGDDVIIIGVFKGESDPAYQQYQDAANNLREDYKFHHTFSTEIAKFLKVSQGQLVVMQPEKFQSKYEPRSHMMDVQGSTQDSAIKDFVLKYALPLVGHRKVSNDAKRYTRRPLVVVYYSVDFSFDYRAATQFWRSKVLEVAKDFPEYTFAIADEEDYAGEVKDLGLSESGEDVNAAILDESGKKFAMEPEEFDSDTLREFVTAFKKGKLKPVIKSQPVPKNNKGPVKVVVGKTFDSIVMDPKKDVLIEFYAPWCGHCKQLEPVYNSLAKKYKGQKGLVIAKMDATANDVPSDRYKVEGFPTIYFAPSGDKKNPVKFEGGDRDLEHLSKFIEEHATKLSRTKEEL

Columns and labels:
[1] = target: T1, 3x Flag-tagged WT EDEM2 (human) (UniProt Q9BV94); experiment: co-IP; lysates of transfected HCT116 knockout cells; anti-Flag antibody and protein G-coupled Sepharose beads; washed with 50 mM Tris/Cl pH 8.0, 1% NP-40, 150 mM NaCl, then PBS; blots of endogenous partners after reducing and non-reducing SDS-PAGE
T1 sequence: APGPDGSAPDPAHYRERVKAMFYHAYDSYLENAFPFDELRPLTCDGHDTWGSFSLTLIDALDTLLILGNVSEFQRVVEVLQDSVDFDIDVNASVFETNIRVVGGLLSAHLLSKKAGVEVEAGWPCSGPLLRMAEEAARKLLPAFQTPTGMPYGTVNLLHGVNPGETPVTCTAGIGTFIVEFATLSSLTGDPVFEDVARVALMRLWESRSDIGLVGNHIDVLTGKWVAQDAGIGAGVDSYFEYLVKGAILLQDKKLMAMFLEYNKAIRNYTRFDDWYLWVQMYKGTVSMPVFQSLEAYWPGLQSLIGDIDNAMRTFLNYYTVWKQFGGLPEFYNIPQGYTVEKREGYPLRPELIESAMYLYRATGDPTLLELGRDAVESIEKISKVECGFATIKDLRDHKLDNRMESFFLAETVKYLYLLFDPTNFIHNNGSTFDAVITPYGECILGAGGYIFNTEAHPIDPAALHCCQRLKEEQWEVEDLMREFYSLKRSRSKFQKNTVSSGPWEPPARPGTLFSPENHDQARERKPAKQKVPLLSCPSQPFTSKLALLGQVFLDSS

[2] = target: T2, 3x Flag-tagged EDEM2 C408A (human) (UniProt Q9BV94); experiment: as above
T2 sequence: T1 sequence with C387A

[3] = target: T3, 3x Flag-tagged EDEM2 C558A (human) (UniProt Q9BV94); experiment: as above
T3 sequence: T1 sequence with C537A

[4] = target: T4, 3x Flag-tagged EDEM2 C65A (human) (UniProt Q9BV94); experiment: as above
T4 sequence: T1 sequence with C44A

[5] = target: T5, endogenous EDEM2 (human (endogenous in HCT116)) (UniProt Q9BV94); experiment: non-reducing SDS-PAGE with immunoblotting (disulfide-bonded complex); lysates of untransfected HCT116 WT, EDEM2-KO and TXNDC11-KO cells; reducing against non-reducing SDS-PAGE; blots with anti-EDEM2, anti-PDI and anti-TXNDC11
T5 sequence: T1 sequence

[6] = target: T6, tandem affinity purification (TAP)-tagged EDEM2 (WT) (human) (UniProt Q9BV94); experiment: pull-down; EDEM2-KO cells co-transfected with TAP-EDEM2 and TXNDC11(M1A)-3xFlag; lysis in 50 mM MES pH 7.5, 150 mM NaCl, 1% CHAPS; IgG Sepharose beads 8 hr at 4°C; wash with 400 mM NaCl, 0.1% CHAPS overnight; eluted with AcTEV protease; eluates read by silver staining and by immunoblotting
T6 sequence: T1 sequence

Row | binding [1] | binding [2] | binding [3] | binding [4] | binding [5] | binding [6] | Binder
1 | binds | binds | no binding | binds | binds |  | B1
2 |  |  |  |  |  | binds | B2
3 | no binding | no binding | no binding | no binding |  |  | B3
